The campaign covered roughly 400,000 compounds. About 13,000 (3.2%) were called active. The shares of active, inactive and inconclusive entries below differ from those in the screen. Calls follow the shape of the dose curve; as a rule, active = well fitted cell-killing curve with a large enough effect; inconclusive = small, poorly fitted or top-dose-only effect, or effect the other way; inactive = flat fitted curve, though single readings scatter. A potency beside an inconclusive call is a rough fit, not a confirmed value.
Assay: qHTS assay for MDR1-selective chemotherapeutics: Primary screen using the drug-selected MDR subline cells KB-V1; also: nearly all actives have a fitted effect of over 60% in size
Settings: KB-V1 MDR cells viability, CellTiter-Glo, 72 h; activity change, negative = cytotoxicity: at 46.1 µM (top of the series)
Outline: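 Readout: CellTiter-Glo luminescence, 10 min after addition. Cells: KB-V1 MDR subline, 72 h at 37 degrees C with compound. Analysis: corrected, normalized data fitted to concentration-effect curves.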
% is scaled to controls: 0 for no effect and ±100 for the full control effect; potency is read from the fitted curve at half-maximal effect.

SMILES	Potency	activity change, negative = cytotoxicity
COc1ccc(CNC(=O)C(c2ccc(C)cc2)N(Cc2cccs2)C(=O)c2ccc3c(c2)OCCO3)cc1 (stereo unspecified)	active: 4.61 µM	
CCCCCOc1ccc(CSC(=N)N)cc1[N+](=O)[O-]	active: 18.4 µM	
COCCN(CCOC)S(=O)(=O)c1ccc(C(=O)Nc2nc3c(s2)CCc2ccccc2-3)cc1	active: 8.2 µM	
Cn1c(SCc2nc(-c3ccc(Br)cc3)no2)nnc1-c1ccco1	inconclusive: 20.6 µM [cytotoxic, single point]	
C=CCNC(=O)c1onc(CSc2ccccc2CC)c1C(=O)O	inconclusive: 3.26 µM [rising, partial curve, poor fit]	
Cc1ccc(-n2nc(C)cc2NC(=O)CC#N)cc1	inconclusive: 29.1 µM [rising, single point]	
Cc1cc(C)c(NC(=O)CSc2nncn3c2cc2oc(C)cc23)c(C)c1		inactive: 22.9%
Cc1cc(C)c(C2C3=C(Nc4c2c(C)nn4-c2ccccn2)c2ccccc2C3=O)c(C)c1 (stereo unspecified)	inconclusive: 20.6 µM [cytotoxic, partial curve, poor fit]	
Cc1c(Cl)ccc2c1NC(=O)[C@]21N[C@@H](Cc2ccccc2)[C@H]2C(=O)N(c3ccc(F)cc3)C(=O)[C@H]21	active: 9.2 µM	
COc1cccc(CN(C)C(=O)CSc2nc3ccccc3[nH]2)c1OC	active: 16.4 µM	
N#CC1(c2ccccc2)CCCN1C(=O)c1ccco1 (stereo unspecified)	inconclusive: 29.1 µM [rising, single point]	
CN(C(=O)c1cccc(NC(=O)Cc2ccc([N+](=O)[O-])cc2)c1)C1CCC1	inconclusive: 2.31 µM [cytotoxic, partial curve, poor fit]	
CCOC(=O)C1(Cc2cccc(OC)c2)CCN(CC=C(C)C)CC1	inconclusive: 9.2 µM [cytotoxic, partial curve]	
CSc1ccccc1NC(=O)c1csc(C)c1	inconclusive: 0.517 µM [rising, full curve]	
O=C(O)C/C(=C\c1cc(Cl)c2c(c1)OCO2)c1nc2ccccc2s1	inconclusive: 5.17 µM [rising, full curve]	
CC(=O)N1C(C)(C)CC(=NOS(=O)(=O)c2ccccc2)CC1(C)C		inactive: 0%
Cc1ccc(Cn2c(NCCc3ccccc3)nc3c2c(=O)n(C)c(=O)n3C)cc1	inconclusive: 2.06 µM [cytotoxic, full curve]	
Cc1ccc(N=Cc2c(O)n(C)c(=O)n(C)c2=O)nc1	inconclusive: 29.1 µM [cytotoxic, single point]	
CCCn1c(=O)c(C(=O)NNS(=O)(=O)c2ccc(Cl)cc2)c(O)c2ccccc21	inconclusive: 16.4 µM [cytotoxic, single point]	
COc1ccc(OCC(=O)N2CCN(C(=O)Cc3ccccc3)CC2)cc1	inconclusive: 23.1 µM [cytotoxic, partial curve]	
COc1ccc(C2=NS(=O)(=O)N(C)C(C(=O)Nc3ccc(C)cc3)=C2)cc1	inconclusive: 29.1 µM [cytotoxic, single point]	
Cc1c(OC(C)C(=O)NCCN2CCOCC2)ccc2c3c(c(=O)oc12)CCC3 (stereo unspecified)		inactive: -1.95%

Arranged by number of heavy atoms (ascending): 3 of the compounds above.
SMILES	Potency	activity change, negative = cytotoxicity
C=CCNC(=O)c1onc(CSc2ccccc2CC)c1C(=O)O	inconclusive: 3.26 µM [rising, partial curve, poor fit]	
CCCn1c(=O)c(C(=O)NNS(=O)(=O)c2ccc(Cl)cc2)c(O)c2ccccc21	inconclusive: 16.4 µM [cytotoxic, single point]	
Cc1c(Cl)ccc2c1NC(=O)[C@]21N[C@@H](Cc2ccccc2)[C@H]2C(=O)N(c3ccc(F)cc3)C(=O)[C@H]21	active: 9.2 µM	

Continued:

SMILES	Potency	activity change, negative = cytotoxicity
O=C(Nc1cc(Sc2ccccn2)cc([N+](=O)[O-])c1)c1ccc(Cl)cc1	inconclusive: 8.2 µM [cytotoxic, partial curve, poor fit]	
CCCCCSc1nc2c(c(=O)[nH]c(=O)n2C)n1C(C)C		inconclusive: -3.42%
COc1ccccc1N(CC(=O)NCCSc1ccccn1)S(=O)(=O)c1ccccc1	inconclusive: 7.31 µM [cytotoxic, partial curve]	
Cc1cc(C)c(OCC(=O)Nc2ccc(S(=O)(=O)N3CCCC3)cc2)c(C)c1	inconclusive: 29.1 µM [rising, single point]	
CCCCC(=O)N1CCc2cc(OC)c(OC)cc2C1COc1ccc(OC)cc1 (stereo unspecified)	inconclusive: 29.1 µM [cytotoxic, single point]	
Cc1ccc(C(C(=O)NC2CCCCC2)N(Cc2ccco2)C(=O)C2COc3ccccc3O2)o1 (stereo unspecified)	inconclusive: 29.1 µM [cytotoxic, single point]	
O=C(/C=C/c1ccco1)c1cccc([N+](=O)[O-])c1	inconclusive: 20.6 µM [cytotoxic, single point]	
COC(=O)c1ccc(NC(=O)C23CC4CC(C2)CC(n2cnc(Cl)n2)(C4)C3)cc1	inconclusive: 29.1 µM [cytotoxic, single point]	
CCC(C)NC(=O)CNC(=O)c1nn(-c2ccc(OC)cc2OC)c(=O)c2ccccc12 (stereo unspecified)		inactive: -15.6%
C/C=C/C=N/NC(=O)CN(c1ccc(Br)cc1)S(=O)(=O)c1ccccc1		inactive: -20.1%
COCCNC(=O)C1(C)CCN(Cc2csc(-c3ccc(Cl)cc3)n2)C1 (stereo unspecified)	inconclusive: 9.2 µM [cytotoxic, partial curve]	
O=C(C(=O)N1CC=C(c2ccccc2)CC1)c1c[nH]c2ccccc12	inconclusive: 20.6 µM [cytotoxic, single point]	
O=C(N/N=C/c1cc([N+](=O)[O-])ccc1O)c1c[nH]c2ccccc12	inconclusive: 25.9 µM [cytotoxic, single point]	
COc1ccc(CNC(=O)C(=O)NCC2OCCCN2S(=O)(=O)c2cccs2)cc1 (stereo unspecified)		inactive: 0.824%
O=C(c1ccc(Cl)c(S(=O)(=O)N2CCCCC2)c1)N1CCCC1	inconclusive: 20.6 µM [cytotoxic, single point]	
CCS(=O)(=O)Nc1cccc(-c2nc3cccnc3s2)c1		inactive: 0%
C[C@@H]1CN([C@H](C)CO)S(=O)(=O)c2ccc(Br)cc2O[C@H]1CN(C)C(=O)C1CCCCC1		inactive: -5.47%
Cc1cccc(OCc2nnc(SCc3cc(=O)[nH]c4ccccc34)n2-c2ccccc2)c1	active: 18.4 µM	
O=C(Nc1cccc(S(=O)(=O)N2CCCCCC2)c1)c1cncc(Br)c1	inconclusive: 4.61 µM [cytotoxic, partial curve]	
CCCOc1ccc(F)cc1-c1cc(C(=O)NCc2ccc(F)cc2)[nH]n1	inconclusive: 29.1 µM [cytotoxic, single point]	
O=C(Oc1c(Cl)cc(Cl)c2ccccc12)N1CCCC1	inconclusive: 29.1 µM [cytotoxic, partial curve, poor fit]	
CCN(Cc1cc2cc(OC)ccc2[nH]c1=O)C(=O)c1ccncc1	inconclusive: 20.6 µM [rising, single point]	

SMILES	Potency	activity change, negative = cytotoxicity
Cn1ccnc1SCC(=O)Nc1cccc(S(=O)(=O)N2CCCCC2)c1	inconclusive: 14.6 µM [cytotoxic, single point]	
CCOc1ccc(CNC(=O)CS(=O)(=O)c2cccc3nsnc23)cc1	inconclusive: 1.46 µM [cytotoxic, full curve, poor fit]	
COCCn1c(SCC(=O)Nc2cc(C(C)(C)C)nn2-c2ccccc2)nc2ccccc2c1=O	inconclusive: 1.84 µM [cytotoxic, partial curve, poor fit]	
COc1ccc(/C=C2\SC(=S)NC2=O)cc1OS(=O)(=O)c1ccc(NC(C)=O)cc1		inactive: 2.57%
O=C1CCC(C(=O)N2CCCCO2)CN1Cc1cccc(C(F)(F)F)c1 (stereo unspecified)	inconclusive: 20.6 µM [cytotoxic, single point]	
CC1CC(C)CN(C(=O)Cn2c(=O)n(CCCCC(=O)NCc3ccco3)c(=O)c3ccccc32)C1 (stereo unspecified)	inconclusive: 11.6 µM [cytotoxic, partial curve, poor fit]	
Clc1ccc(COn2c(-c3ccc(Cl)cc3)nc3ccccc32)cc1	active: 18.4 µM	
COc1cccc(-n2cnc3cccc(N)c32)c1	inconclusive: 5.17 µM [cytotoxic, partial curve]	
COc1ccc(NC(=O)c2cc(-c3ccco3)on2)cc1OC	inconclusive: 29.1 µM [rising, single point]	
O=C(CSc1nc(C2CC2)nc2ccccc12)Nc1ccccc1		inactive: -28.8%
COCCNC(=S)N(CCO)Cc1cc2cc3c(cc2[nH]c1=O)OCCO3	inconclusive: 20.6 µM [rising, single point]	
Cc1ccc(OCC(=O)N/N=C/c2cn(Cc3ccccc3)c3ccccc23)cc1		inactive: -3.9%
COC(=O)[C@@]12C[C@@H](CC(=O)N3CCC(c4ccccc4)CC3)C(=O)N(Cc3ccccc3)C1=CCC(C)(C)C2	inconclusive: 14.6 µM [cytotoxic, partial curve]	
O=C(c1ccc(CS(=O)Cc2cccc(Cl)c2)o1)N1CCN(c2ccc(F)cc2)CC1 (stereo unspecified)	inconclusive: 13 µM [cytotoxic, partial curve, poor fit]	
CCCCOc1ccc(OCCNC(=O)c2ccco2)cc1	inconclusive: 23.1 µM [cytotoxic, single point]	
O=C(N/C(=C\c1ccco1)C(=O)N1CCOCC1)c1ccccc1Cl		inactive: 30.2%
O=C(CN1CCc2ccccc2C1)Nc1ccccc1N1CCCCCC1	inconclusive: 18.4 µM [cytotoxic, single point]	
C=C(C)CNC(=S)Nc1nc2c(cc1C(=O)OCC)CCCC2		inactive: 0.152%
COc1ccc(C)cc1NC(=O)CC1NCCNC1=O (stereo unspecified)		inactive: 18.6%
O=C(Nn1c(-c2ccc(F)cc2)nc2ccccc2c1=O)C1CCCCC1	inconclusive: 16.4 µM [cytotoxic, single point]	
CCCCCCCCN1[C@@H](CC(C)=O)c2ccc(/C=C/C(C)=O)cc2S1(=O)=O	inconclusive: 29.1 µM [cytotoxic, partial curve, poor fit]	
COc1ccc(C(C(=O)NCc2ccccc2)n2c(-c3ccccn3)nc3ccccc32)cc1 (stereo unspecified)	inconclusive: 16.4 µM [cytotoxic, partial curve]	
